Reference: PubChem BioAssay AID540276 (National Center for Advancing Translational Sciences (NCATS), 2011)
Values joined by “and” are separate entries in the source; they are usually repeats but may differ in a detail not shown here. Identical values can stand only once. Among all 300,000 compounds or so, about 5,400 (1.8%) were called active. The shares of active, inactive and inconclusive entries below differ from those in the screen. The call rests on the fitted dose curve; tested in HEK293 cells. Potencies beside an inconclusive call are fits to weak or partial responses and may not hold up.

Experiment: qHTS for inhibitors of binding or entry into cells for Marburg Virus
Settings: Marburg virus pseudotyped entry inhibition, cell reporter; series mostly up to 37.8 µM
Potency means the concentration at half of the fitted maximal effect.

| Compound | Potency |
| --- | --- |
| CC1=Nc2ccccc2N=C(NC(=O)c2ccccc2)C1c1ccccc1 (stereo not drawn) | inconclusive: 35.5 µM [inhibitor, partial curve, poor fit] |
| Cc1ncc(CN2CCC(N3CCC(C(=O)N4CCCC4)CC3)CC2)s1 | inactive |
| CNS(=O)(=O)c1ccc(OC)c(-c2nnc3c4ccccc4c(C)nn23)c1 | inactive |
| O=S1(=O)CCC(n2ncc3c2/C(=C/c2ccccc2)CC3)C1 (stereo not drawn) | inconclusive: 15.8 µM [inhibitor, single point] |
| CN(C)c1ccc(C(=O)NN2C(=O)c3ccccc3C2=O)cc1 | inconclusive: 8.91 µM [activator, partial curve, poor fit] |
| O=C(NCCN1CCN(c2ccccc2)CC1)c1ccc(NC(=O)C2CCCO2)cc1 (stereo not drawn) | inactive |
| COc1ccc(/C=C2\N=C(SC)NC2=O)cc1 | inactive |
| CCC(C)NC(=O)C1c2ccccc2C(=O)N1Cc1ccc(OC)cc1OC (stereo not drawn) | inactive |
| O=C(Nc1nc(-c2ccccn2)cs1)Nc1ccc(F)cc1F | inconclusive: 25.1 µM [inhibitor, single point] |
| O=C(CCCCCn1c(=S)[nH]c2ccc(N3CCOCC3)cc2c1=O)NCc1ccc2c(c1)OCO2 | inconclusive: 1.58 µM [inhibitor, partial curve, poor fit] |
| COc1ccccc1NC(=O)/C(=N/OCc1ccc(C#N)cc1)C(C)=O | inconclusive: 0.562 µM [activator, full curve, poor fit] |
| COc1ccc(CCCNC(=O)C2CCC(=O)N(CCc3cccc(F)c3)C2)cc1 (stereo not drawn) | inactive |
| Cc1ccc(NCc2cccn2-c2nnc(N3CCC(C(=O)NCc4ccc(OC(C)C)cc4)CC3)s2)cc1 | inconclusive: 7.94 µM [inhibitor, partial curve, poor fit] |
| O=C(Nc1cc(Cl)ccn1)C1CCN(S(=O)(=O)c2cccs2)CC1 | inconclusive: 5.8 µM [inhibitor, full curve, poor fit] |
| COc1ccc(Nc2c(-c3cc(Br)ccc3O)nc3ncccn23)cc1OC | inconclusive: 20 µM [inhibitor, single point] |
| COc1cc2c3c(c1)/C(=C1/SC(=S)NC1=O)C(=O)N3C(C)(C)C=C2C | inconclusive: 12.6 µM [inhibitor, partial curve, poor fit] |
| CCCCn1c(/C=N/Nc2nc3ccccc3[nH]2)nc2ccccc21 | inconclusive: 15.8 µM [inhibitor, partial curve, poor fit] |
| CC(=O)c1cccc(NC(=O)C23CC4CC(C2)CC(n2cncn2)(C4)C3)c1 | inactive |
| CCCCn1c(=O)[nH]c(=O)c2c1nc(-c1ccccc1F)n2Cc1ccccc1 | inconclusive: 6.31 µM [inhibitor, partial curve, poor fit] |
| CCOc1cccc2sc(N(CCCN(C)C)C(=O)c3ccc(S(=O)(=O)N(C)CC4CCCO4)cc3)nc12 (stereo not drawn) | inconclusive: 35.5 µM [inhibitor, single point] |
| CC(C)c1ccc(/C=N/n2c(COc3ccccc3)n[nH]c2=S)cc1 | inconclusive: 35.5 µM [inhibitor, single point] |
| CCN1CCN(c2ncc(C(=O)Nc3c(F)cc(F)cc3Br)c3ccccc23)CC1 | inconclusive: 35.5 µM [inhibitor, single point] |
| Cc1ccc(/C=C2\SC(=S)N(CCC(=O)N3CCCCC3)C2=O)cc1 | inactive |

| Compound | Potency |
| --- | --- |
| CC1CC(C)CN(CCCSc2ccccc2)C1 (stereo not drawn) | active: 2.91 µM |
| Cc1ccc(-c2nc3ccccc3n2C)o1 | inconclusive: 0.116 µM [activator, full curve, poor fit] |
| O=C(O)[C@@H]1CC=CC[C@H]1C(=O)N1CCN(c2nc(-c3ccccc3)c3ccccc3n2)CC1 | inconclusive: 25.1 µM [inhibitor, single point] |
| CN(C)CC/C=C1\c2ccccc2Sc2cc(F)c(Cl)cc21 | active: 14.1 µM |
| O=C1CN=C(c2ccccc2)c2ccccc2N1Cc1ccc(C(F)(F)F)cc1 | inconclusive: 11.6 µM [inhibitor, single point] |
| C/C(=N\O)c1ccccc1C(=O)O | inconclusive: 3.55 µM [activator, single point] |
| COc1ccc(N(C(=O)Cc2cccs2)C(C(=O)NC2CCCC2)c2ccncc2)cc1 (stereo not drawn) | inactive |
| Cc1ccc(Cl)cc1NC(=O)N1CCN(C)c2ncccc21 | inactive |
| CC1=C(C#N)C(NC(=O)c2cccc(Cl)c2)(C(F)(F)F)C(=O)N1 (stereo not drawn) | inconclusive: 4.47 µM [activator, full curve, poor fit] and inconclusive: 35.5 µM [activator, partial curve, poor fit] |
| CCOCCOC(=O)c1ccc(NC(=O)c2cc3ccccc3o2)cc1 | inconclusive: 5.62 µM [inhibitor, partial curve, poor fit] |
| COc1cccc(C(=O)O/N=C(\N)c2ccc([N+](=O)[O-])cc2)c1OC | inconclusive: 35.5 µM [inhibitor, single point] |
| COc1ccc(NC(=O)CN(C)C(=O)c2cccc(S(=O)(=O)N3CC4(C)CC3CC(C)(C)C4)c2)cc1 (stereo not drawn) | inconclusive: 15.8 µM [inhibitor, single point] |
| N#CCSc1nc2c(cc1C#N)CCCC2 | inconclusive: 12.6 µM [activator, partial curve, poor fit] |
| O=C(Nc1ccc(F)cc1)C(Cc1ccccc1)n1cccc1 (stereo not drawn) | inconclusive: 2.82 µM [inhibitor, full curve, poor fit] |
| CC1CCCN(C(=O)c2ccc(N3CC4CC(C3)c3cccc(=O)n3C4)c([N+](=O)[O-])c2)C1 (stereo not drawn) | inconclusive: 35.5 µM [activator, single point] |
| COc1ccccc1-c1noc(-c2ccc(N3CCN(c4ccccc4)CC3)c([N+](=O)[O-])c2)n1 | inactive |
| CCCCCCCn1c(=O)c(C(=O)Nc2cnccn2)c(O)c2ccccc21 | inconclusive: 20 µM [inhibitor, single point] |
| Cc1ccc(NC(=S)Nc2cc(C)on2)cc1 | inconclusive: 0.794 µM [activator, full curve, poor fit] |
| O=S(=O)(Nc1ccccc1N1CCCCC1)c1cccs1 | inconclusive: 35.5 µM [inhibitor, single point] |
| COCc1cc(C)n(CC(=O)Nc2ccc(NC(C)=O)cc2)c(=O)c1C#N | inactive |
| CC(C)OCCCN(Cc1ccco1)C(=O)c1cc2c(s1)-c1ccccc1OC2 | inactive |
| CCCCN1Cc2c(nc3cc(-c4ccco4)[nH]n3c2=O)C1=O | inconclusive: 7.08 µM [activator, partial curve, poor fit] |
| O=C(c1cc(S(=O)(=O)N2CCOCC2)c(Cl)cc1Cl)N1CCCC1 | inactive |

| Compound | Potency |
| --- | --- |
| COC(=O)C(C)Sc1ncnc2c1nnn2-c1ccc(F)cc1 (stereo not drawn) | inactive |
| CN(c1ccccc1)S(=O)(=O)c1ccc(C(=O)Nc2ccncc2)cc1 | inactive |
| COC(=O)c1cc2oc3ccccc3c2n1CC(=O)Nc1ccc(OC)c(OC)c1OC | inconclusive: 0.631 µM [inhibitor, full curve, poor fit] |
| CC(C)(C)Nc1c(-c2ccc(O)cc2)nc2ccc(Cl)cn12 | inactive |
| N#Cc1c(-c2ccccc2)cc(-c2ccccc2)nc1SCc1nnc(-c2ccccc2)o1 | inconclusive: 32.6 µM [inhibitor, single point] |
| O=C(Nc1ccccc1C(=O)Nc1nnc(C(F)(F)F)s1)c1ccccc1 | active: 3.98 µM |
| c1ccc(-n2nnnc2Oc2cccc3cccnc23)cc1 | inconclusive: 29.1 µM [inhibitor, single point] |
| CC1(C)Cc2c(sc(/N=C/N3CCCCCC3)c2C#N)C(C)(C)N1 | inconclusive: 6.31 µM [inhibitor, single point] |
| CC(=O)Nc1cccc(NC(=O)c2cc(-c3cccnc3)nc3ccc(Br)cc23)c1 | inconclusive: 5.8 µM [inhibitor, full curve] |
| c1ccc2c(c1)CCC[C@H]2Nc1nc2ccccc2[nH]1 | inactive |
| O=C(Cn1nnc(-c2ccccc2)n1)NCc1ccco1 | inactive |
| Cc1ccc(C(=O)NCCCc2ccccc2)s1 | inconclusive: 1.3 µM [activator, partial curve] |
| Cc1cccc(NC(=O)C2CCN(S(=O)(=O)c3cccc4nsnc34)CC2)c1C | inactive |
| COc1ccc2c(c1)-c1nc(NC(=O)c3ccco3)sc1CC2 | inconclusive: 35.5 µM [inhibitor, single point] and inconclusive: 2.31 µM [activator, partial curve] |
| C[C@@H]1NC(=O)[C@H](CCC(N)=O)NC(=O)c2cc([N+](=O)[O-])cc(I)c2NCCC[C@@H](C(N)=O)NC1=O | inactive |
| N=c1n(CCO)c2ccccc2n1Cc1ccccc1Cl | inconclusive: 35.5 µM [inhibitor, single point] |
| CC(=O)c1cc(C#N)c(SCC(=O)OC(C)(C)C)nc1C | inactive |
| CC1CN(c2ccc([N+](=O)[O-])cc2F)CCN1C(=O)c1ccco1 (stereo not drawn) | inconclusive: 10 µM [inhibitor, partial curve, poor fit] |
| O=C(CN1C(=O)c2ccccc2C1=O)NC1CCC(O)CC1 (stereo not drawn) | inconclusive: 3.16 µM [inhibitor, single point] |
| O=C(c1csc2c1CCCC2)N1CCN(c2ccc(F)cc2)CC1 | inconclusive: 29.1 µM [inhibitor, single point] |
| O=C1N=C(N2CCOCC2)S/C1=C/c1cccs1 | inactive |
| O=C(Nc1ccc(F)cc1)N(Cc1cccs1)Cc1cc2cc3c(cc2[nH]c1=O)OCO3 | inconclusive: 11.2 µM [inhibitor, partial curve, poor fit] |
